Data from US20220133753A1, “COMPOSITIONS AND METHODS USEFUL FOR TREATING DISEASES CHARACTERIZED BY INSUFFICIENT PANTOTHENATE KINASE ACTIVITY” (Comet Therapeutics, Inc., priority 2016, published 2022).
At least one structure is not confirmed: it was looked up by name or label, or the drawing left a doubt.

Legend:
Format in all cases: in vivo, Drosophila melanogaster
[1] = test system: homozygous dPANK/fbl1 and dPANK/fblnull mutants; experiment: Drosophila dPANK/fbl mutants, lifespan and development with CoA or Vitamin B5 in the food; conditions: added to the food as negative control
Procedure: Drosophila Maintenance and Crosses: Drosophila melanogaster stocks/crosses were raised on standard cornmeal agar fly food (containing water, agar 17 g/L, sugar 54 g/L, yeast extract 26 g/L and nipagin 1.3 g/L) at 25° C. The stocks were either obtained from the Bloomington Stock Centre (Indiana University, USA), VDRC (Vienna Drosophila RNAi Collection, Vienna, Austria) or from the Exelixis Collection (Harvard Medical School) and rebalanced to generate eGFP-positive balancers. The stocks used were: w1118; dPANK/fbl1 hypomorph5,6; dPANK/fblnull (y[1] w[*]; Mi{y[+mDint2]=MIC}fbl[MI04001]/TM3, Sb[1] Ser[1], Bloomington 36941); dPPCDC mutant (w[1118], PBac{w[+mC]=WH}Ppcdc[f00839]/CyO, Bloomington 18377); UAS-dPPCDCRNAi line (VDRC 104495); dCOASY mutant (PBac{RB}Ppat-Dpck[e00492], Exelixis). The UAS-RNAi constructs were expressed ubiquitously using the Actin-Gal4 drivers (y[1] w[*]; P{w[+mC]=Act5C-GAL4}25FO1/CyO, y[+], Bloomington 4414). […]
(§1) Drosophila Life Span: One-day old adults of Drosophila homozygous mutants or RNAi-constructs expressing lines, were collected with appropriate controls and were kept on standard fly food at 25° C. with or without CoA or Vitamin B5 (Sigma) at necessary concentration (50 ul added on top of the fly food and dried). The flies were counted every 12-24 hrs and flipped to new fly food vials with or without CoA or Vitamin B5.

[2] = test system: homozygous dCOASY mutants; experiment: Drosophila dCOASY mutants, larval development with CoA or Vitamin B5; conditions: added to the food
Procedure: Drosophila Maintenance and Crosses: Drosophila melanogaster stocks/crosses were raised on standard cornmeal agar fly food (containing water, agar 17 g/L, sugar 54 g/L, yeast extract 26 g/L and nipagin 1.3 g/L) at 25° C. The stocks were either obtained from the Bloomington Stock Centre (Indiana University, USA), VDRC (Vienna Drosophila RNAi Collection, Vienna, Austria) or from the Exelixis Collection (Harvard Medical School) and rebalanced to generate eGFP-positive balancers. The stocks used were: w1118; dPANK/fbl1 hypomorph5,6; dPANK/fblnull (y[1] w[*]; Mi{y[+mDint2]=MIC}fbl[MI04001]/TM3, Sb[1] Ser[1], Bloomington 36941); dPPCDC mutant (w[1118], PBac{w[+mC]=WH}Ppcdc[f00839]/CyO, Bloomington 18377); UAS-dPPCDCRNAi line (VDRC 104495); dCOASY mutant (PBac{RB}Ppat-Dpck[e00492], Exelixis). The UAS-RNAi constructs were expressed ubiquitously using the Actin-Gal4 drivers (y[1] w[*]; P{w[+mC]=Act5C-GAL4}25FO1/CyO, y[+], Bloomington 4414). Heterozygous flies/larvae for the mutants and the Actin-Gal4 driver crossed to isogenic w1118 flies (Actin-Gal4/+) were used as controls for the RNAi-constructs expressing flies.
Drosophila Larval Collection and Larval Count Experiment: One week old flies (in the ratio 10 females and 5 males) were kept on 5 ml of standard fly food in a vial at 25° C. with or without various concentrations of CoA or Vitamin B5 (Sigma). […]

[3] = test system: homozygous dPPCDC mutants and dPPCDC RNAi expressing flies; experiment: Drosophila dPPCDC mutant and dPPCDC RNAi flies, development, lifespan and fertility with CoA or Vitamin B5
Procedure: Drosophila Maintenance and Crosses: Drosophila melanogaster stocks/crosses were raised on standard cornmeal agar fly food (containing water, agar 17 g/L, sugar 54 g/L, yeast extract 26 g/L and nipagin 1.3 g/L) at 25° C. The stocks were either obtained from the Bloomington Stock Centre (Indiana University, USA), VDRC (Vienna Drosophila RNAi Collection, Vienna, Austria) or from the Exelixis Collection (Harvard Medical School) and rebalanced to generate eGFP-positive balancers. […]
as §1
Drosophila Ovary Rescue Experiment: UAS-dPPCDC RNAi constructs were ubiquitously expressed under the control of Actin-Gal4. […] The vials (or plates) from the crosses (with eggs that were being laid during the 4 day period of CoA rescue) were kept for another 10 days and offspring numbers were counted after eclosion. […]

## CC(C)(CO)[C@@H](O)C(=O)NCCC(=O)O [Vitamin B5, pantothenate]
[1]
  rescue of the phenotypes: did not result in any significant rescue
[2]
  rescue of the phenotype: did not result in any significant rescue
[3]; dPPCDC RNAi expressing females
  egg production and fertility of females: no or only very few eggs
[3]; dPPCDC mutants and RNAi flies, added to the food as negative control
  rescue of the phenotypes: did not result in any significant rescue
